The record followed here is article PMC4203356.

By UniProt entry, the sequences of proteins in these tests, tags left out. Where a name states a change or a piece, a line headed by the entry shows the natural chain unless it says otherwise.
UniProt P14416: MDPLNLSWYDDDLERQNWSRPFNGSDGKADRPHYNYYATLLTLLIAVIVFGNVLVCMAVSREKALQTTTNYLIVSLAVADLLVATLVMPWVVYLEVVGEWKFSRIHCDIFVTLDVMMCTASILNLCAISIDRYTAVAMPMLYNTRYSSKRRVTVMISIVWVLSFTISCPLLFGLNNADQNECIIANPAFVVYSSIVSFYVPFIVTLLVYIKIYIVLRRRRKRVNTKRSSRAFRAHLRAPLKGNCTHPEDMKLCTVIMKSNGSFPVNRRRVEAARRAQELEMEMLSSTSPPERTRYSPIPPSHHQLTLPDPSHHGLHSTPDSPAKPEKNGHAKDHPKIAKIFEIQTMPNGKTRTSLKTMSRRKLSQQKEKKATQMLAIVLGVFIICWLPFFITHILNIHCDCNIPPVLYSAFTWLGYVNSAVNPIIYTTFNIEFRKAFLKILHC
UniProt Q86UW7: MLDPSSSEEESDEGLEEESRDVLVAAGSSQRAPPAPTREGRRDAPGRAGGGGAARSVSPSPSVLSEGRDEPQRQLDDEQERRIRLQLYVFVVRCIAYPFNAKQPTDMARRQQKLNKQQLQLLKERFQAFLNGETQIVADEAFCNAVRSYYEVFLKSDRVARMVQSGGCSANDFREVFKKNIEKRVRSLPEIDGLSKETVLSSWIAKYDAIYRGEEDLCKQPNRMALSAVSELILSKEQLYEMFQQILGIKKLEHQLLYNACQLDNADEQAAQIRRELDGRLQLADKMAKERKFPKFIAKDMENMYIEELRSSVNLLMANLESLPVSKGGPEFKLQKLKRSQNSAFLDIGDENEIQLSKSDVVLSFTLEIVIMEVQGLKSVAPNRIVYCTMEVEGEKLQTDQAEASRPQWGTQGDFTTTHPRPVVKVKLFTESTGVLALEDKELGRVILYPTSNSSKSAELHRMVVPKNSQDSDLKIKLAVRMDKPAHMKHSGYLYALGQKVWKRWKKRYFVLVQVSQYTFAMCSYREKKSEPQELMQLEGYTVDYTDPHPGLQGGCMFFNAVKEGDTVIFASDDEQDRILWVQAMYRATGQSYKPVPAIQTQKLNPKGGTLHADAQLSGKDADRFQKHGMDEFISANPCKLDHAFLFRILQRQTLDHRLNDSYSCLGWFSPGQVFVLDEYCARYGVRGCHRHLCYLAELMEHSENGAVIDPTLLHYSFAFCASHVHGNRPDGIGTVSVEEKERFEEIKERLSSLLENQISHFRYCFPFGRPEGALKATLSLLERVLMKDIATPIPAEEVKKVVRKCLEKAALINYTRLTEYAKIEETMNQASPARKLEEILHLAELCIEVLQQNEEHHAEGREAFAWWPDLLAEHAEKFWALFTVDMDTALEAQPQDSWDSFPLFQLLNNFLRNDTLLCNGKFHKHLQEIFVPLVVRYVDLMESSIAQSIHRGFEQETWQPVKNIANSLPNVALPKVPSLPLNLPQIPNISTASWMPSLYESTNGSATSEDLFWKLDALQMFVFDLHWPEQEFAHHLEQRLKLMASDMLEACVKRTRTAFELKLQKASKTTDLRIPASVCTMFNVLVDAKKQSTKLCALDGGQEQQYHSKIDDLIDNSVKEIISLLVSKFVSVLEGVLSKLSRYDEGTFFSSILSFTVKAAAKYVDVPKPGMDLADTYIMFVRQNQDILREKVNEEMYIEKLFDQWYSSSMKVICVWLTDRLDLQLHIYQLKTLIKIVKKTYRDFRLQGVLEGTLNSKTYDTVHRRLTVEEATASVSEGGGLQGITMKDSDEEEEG

Test [1] concerns the target dopamine receptor type 2 (D2DR) (human (endogenous in SHSY5Y)) (UniProt P14416). The test can be described thus: co-IP; lysates of SHSY5Y cells transfected with CADPS2-V5 constructs; immunoprecipitation with rabbit anti-D2DR antibody on Protein G-Sepharose at 4°C, western blot with mouse anti-V5; lysis in 50 mM HEPES, 1 mM EDTA, 10% glycerol, 1% Triton X-100, 150 mM NaCl. For orientation: In western blotting, separated proteins are transferred to a membrane and probed.

The target in test [2] is Ca2+-dependent activator protein for secretion 2 (CADPS2), wild type, C-terminal V5 tag (human) (UniProt Q86UW7). Nature of the test: co-IP; lysates of SHSY5Y cells transfected with CADPS2-V5 constructs; immunoprecipitation with mouse anti-V5 antibody on Protein G-Sepharose at 4°C, western blot with rabbit anti-D2DR; lysis in 50 mM HEPES, 1 mM EDTA, 10% glycerol, 1% Triton X-100, 150 mM NaCl.

No constants are given. Whether binding was seen depends on the method and setting. In cells and extracts the contact can be indirect. Some entries that bind do so weakly or less than the wild type.

Turning to “Ca2+-dependent activator protein for secretion 2 (CADPS2), wild type, C-terminal V5 tag (from UniProt Q86UW7-1 1-1296)”, the binding result in test [1] is recorded as “binds”.
As to “dopamine receptor type 2 (D2DR) (from UniProt P14416 1-443)”, the binding entry in test [2] is given as “binds”.
